We go through five sequences from PMC12618267, “GAGA zinc finger transcription factor searches chromatin by 1D–3D facilitated diffusion”.

Series [1] concerns T1, GAF-ΔPOZ (Drosophila melanogaster).
T1 sequence (looked up, limits assumed): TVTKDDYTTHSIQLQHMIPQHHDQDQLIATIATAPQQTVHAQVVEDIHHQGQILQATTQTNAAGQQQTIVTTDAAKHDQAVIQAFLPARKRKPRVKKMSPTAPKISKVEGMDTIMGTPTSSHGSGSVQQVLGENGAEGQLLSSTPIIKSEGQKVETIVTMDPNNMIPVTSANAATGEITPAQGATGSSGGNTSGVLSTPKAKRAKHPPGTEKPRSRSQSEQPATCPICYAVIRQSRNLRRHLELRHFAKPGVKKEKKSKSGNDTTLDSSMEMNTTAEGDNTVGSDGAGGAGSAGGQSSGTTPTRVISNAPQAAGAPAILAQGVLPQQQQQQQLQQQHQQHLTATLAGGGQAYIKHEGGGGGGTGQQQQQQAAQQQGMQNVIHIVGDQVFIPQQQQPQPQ
Briefly: EMSA. The note with it: 0-20 nM protein, 3 nM DNA; 12.5 mM HEPES-KOH pH 7.6, 0.05 mM EDTA, 6.25 mM MgCl2, 5% glycerol, 50 mM NaCl, 50 ug/ml BSA, 0.05% NP-40; EMSA at room temperature; smFRET adds dextrose, Trolox; recombinant protein; protein details: SNAP, AF546; label: Cy5 at end.

The subject of series [2] is Cy3-GAF-DBD / GAF-DBD (Drosophila melanogaster). Briefly: smFRET. Conditions: 12.5 mM HEPES-KOH pH 7.6, 0.05 mM EDTA, 6.25 mM MgCl2, 5% glycerol, 50 mM NaCl, 50 ug/ml BSA, 0.05% NP-40, smFRET adds dextrose, Trolox, recombinant protein.

Construct, isoform or probe ends are uncertain for at least one entry. For part of these data: The comparison behind a weaker result is the experiment's own reference, which may not be listed here. For part of these data: At least one verdict was read from the data and is not stated in words by the source. For part of these data: Protein sequences can lack the tags named with them.

With “GTGTCATTTGTTTGGCAGAAAGAAAACTCGAGAAATTTCTCTGGCCGTTATTCTCTATTCGTTTTGTGACTCTCCCTCTCTGTACTATTGCTCTCTCACTCTGTCGCACAGTAAACGGCACACTGTTCTCGTTGCTTCGAGAGAGCGCGCCTCGAA (double strand) [hsp70 NCP DNA (free, 3-N-6)]”, the binding result in series [1] is “binds”.
As for “GTTTTGTGAGTACGCGCTGTTGTACTATTGTTAACCCACAAGGTCGCACAGTAAACGGCACACTGTACGTGTTGCTTCTATACAGCGCGC (double strand) [Cy5-non-motif DNA 90 bp]”, the binding result in series [2] (0.2 nM protein, dwell 0.33 s (9-fold shorter), binding frequency 16-fold lower than cognate, label: 5' biotin strand 1, internal Cy5 strand 2) is recorded as “binds more weakly”.
As to “TCATTTGTTTGGCAGAAAGAAAACTCTCAAAATTTCGTTGGCCGTTATAGCATATTCGTTTTGTCCAGCACTGTAATAGTACTATTGTTAACCCACAAGGTCGCACAGTAAACGGCACACTGTACGTGTTGCTTCGAGAGAGCGCGCCACCTGGTGTCGCGAAAAGAGCGCCGGAGTATAAATAGAG (double strand) [hsp70 Motif 2 Only 187 bp]”, the binding result in series [2] (site 2 FRET stable, mutated site 1 transient or undetectable, label: internal Cy7 and Cy5, biotin) is given as “binds”.
Take “TCATTTGTTTGGCAGAAAGAAAACTCTCAAAATTTCGTTGGCCGTTATAGCATATTCGTTTTGTGACTCTCCCTCTCTGTACTATTGTTAACCCACAAGGTCGCACAGTAAACGGCACACTGTACGTGTTGCTTCGAGAGAGCGCGCCACCTGGTGTCGCGAAAAGAGCGCCGGAGTATAAATAGAG (double strand) [hsp70 flipped 187 bp]”: the binding result in series [2] (overall dwell 3.6 s, label: internal Cy7 and Cy5, biotin) is “binds”.
For “TCATTTGTTTGGCAGAAAGAAAACTCTCAAAATTTCGTTGGCCGTTATAGCATATTCGTTTTGTGAGAGAGGGAGAGAGTACTATTGTTAACCCACAAGGTCGCACAGTAAACGGCACACTGTACGTGTTGCTTCGAGAGAGCGCGCCACCTGGTGTCGCGAAAAGAGCGCCGGAGTATAAATAGAG (double strand) [hsp70 tandem 187 bp (site 1 + site 2)]”, the binding result in series [2] (3 mM Mg2+, 3-fold longer nonspecific dwell, label: internal Cy7 and Cy5, biotin) was “binds”; in series [2] (6.25 mM Mg2+, overall dwell 3.34 s, site 1 0.25 s, site 2 0.11 s, label: internal Cy7 and Cy5, biotin) it was “binds”.
